Some of the results follow. Shown are side measurements of this screen, not its main read-out; they come without a call. The list favours compounds with an active or inconclusive main result. Words in brackets tell the shape of the fitted curve; partial curves, single points and poor fits give uncertain potencies.

For orientation: AC50 means the concentration at which the activity in the assay is half-maximal.

The experiment can be described thus: qHTS Assay to Find Inhibitors of Chronic Active B-Cell Receptor Signaling. The settings on record: ABC-DLBCL IkBa-CBG/CBR reporter, luminescence ratio (green luciferase fused to IkBa over red control in TMD8 lymphoma cells), 4 h. An outline of the steps:
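Concentration-response series (up to 46 uM) were applied to TMD8 dual-reporter cells for 4 h at 37C with doxycycline. Green/red ratio, after filter-overlap correction, defined %Activity; red signal alone was normalised to basal cells and zero luminescence.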
(In general: Quantitative high-throughput screening tests each substance at several concentrations.)

The mark [1] stands for this setting: measured here: CBR red luminescence, cell number.
[2] abbreviates: measured here: IkBa-CBG green luminescence.

In the case of `COc1ccc2cc(C(=O)NCc3ccccc3)c(=Nc3ccc(C(=O)O)cc3)oc2c1`, under setting [1], the AC50 is 0.447 µM [falling, full curve, poor fit].

In the case of `CN(CC(=O)Nc1ccc(S(=O)(=O)N2CCCC2)cc1)CC(=O)Nc1ccc(F)c(F)c1F`, under setting [1], the AC50 is 17.8 µM [falling, partial curve, poor fit].

In the case of `COc1ccccc1NC(=O)C1C2C=CC(O2)C1C(=O)O` (centres undefined), the AC50 under setting [1] was 35.5 µM [falling, single point].

Take `COc1ccc(CC(=S)NCCc2ccccc2)cc1`: the AC50 under setting [1] was 7.08 µM [rising, full curve, poor fit].

Take `CC(NC(=O)C1CCCN1S(=O)(=O)c1ccc2c(c1)n(C)c(=O)c(=O)n2C)c1ccccc1` (centres undefined): the AC50 under setting [1] is 35.5 µM [rising, single point].

`O=C(Cn1ncc2c1-c1ccccc1OC2)Nc1nc2ccccc2s1`: the AC50 under setting [1] was 15.8 µM [falling, single point].

Turning to `COCCn1c(=S)[nH]c2cc(C(=O)NCC3CCCO3)ccc2c1=O` (centres undefined), the AC50 under setting [1] is 2.06 µM [falling, full curve, poor fit].

In the case of `COc1ccc2c(C)c(C(=O)N3CCN(Cc4ccccc4)CC3)oc2c1`, the AC50 under setting [1] is 12.6 µM [falling, single point].

Turning to `COc1ccc(CNC(=O)C(C)OC(=O)c2cccn2C)cc1` (centres undefined), the AC50 under setting [1] is 15.8 µM [rising, single point].

For `CCC(=O)Nc1nc2c(OC)ccc(C)c2s1`, the AC50 under setting [1] was 1.3 µM [falling, full curve, poor fit].

In the case of `Nc1nonc1C(=O)NCCNCc1cc(Br)ccc1OCc1ccccc1F`, the AC50 under setting [1] was 29.1 µM [falling, single point].

In the case of `Fc1cccc(CSc2nc(NCCc3ccccc3)c3ccccc3n2)c1`, under setting [1], the AC50 is 35.5 µM [rising, single point].

`COc1cc(CNC(C)c2ccccc2)cc(Cl)c1OCC(=O)Nc1ccccc1` (centres undefined): the AC50 under setting [1] was 22.4 µM [falling, single point].

As for `CCOC(=O)N1CCC(N2Cc3cccc(C(=O)Nc4cc(F)ccc4F)c3C2=O)CC1`, the AC50 under setting [1] is 4.11 µM [falling, single point].

Turning to `COc1cccc2cc(C(=O)NC(C)C3CCCO3)c(=O)oc12` (centres undefined), the AC50 under setting [1] was 14.6 µM [falling, single point].

In the case of `CCOC(=O)CNC(=O)CCc1nnc2ccc(N3CCC(C)CC3)nn12`, the AC50 under setting [1] is 0.631 µM [rising, full curve, poor fit].

For `NC(=O)c1cc2c3ccccc3ccn2c1-c1ccccc1`, the AC50 under setting [1] was 11.2 µM [falling, partial curve].

Take `Cc1ccc(S(N)(=O)=O)cc1NC(=O)/C=C/c1ccc2c(c1)OCO2`: under setting [1], the AC50 was 12.6 µM [falling, single point].

On to `N#C/C(=C\c1ccc[nH]1)C(=O)NC1CC1`, for which the concentration at half-maximal activity (AC50) under setting [1] is 29.1 µM [falling, single point].

Consider `Cc1ccc2cccc(NC(=S)NC(=O)c3c(Br)cnn3C)c2n1`, for which, under setting [1], the AC50 is 29.1 µM [falling, single point].

With `Cc1ccc(-c2cc(C(=O)N(C)Cc3cnn(C)c3C)c3cc(Br)ccc3n2)cc1`, the AC50 under setting [1] was 32.6 µM [falling, single point].

With `c1ccc(-c2nc(NCCCn3ccnc3)c3ccccc3n2)cc1`, the AC50 by setting is: under setting [1], 11.2 µM [falling, partial curve]; under setting [2], 12.6 µM [rising, partial curve, poor fit].

With `N#CC1=C(N)SC(N)=C(C#N)C1CCc1ccccc1`, the AC50 under setting [1] was 0.82 µM [rising, partial curve, poor fit].

`CSc1nc2ccccc2cc1/C=C(\C#N)c1ccccc1`: the AC50 under setting [1] was 3.55 µM [rising, partial curve, poor fit].

As to `CNC(=O)c1ccccc1S(=O)c1ccccc1COC(C)=O` (centres undefined), under setting [1], the AC50 was 35.5 µM [rising, single point].

Turning to `CC(C)Nc1ncnc2ccc(Br)cc12`, under setting [1], the AC50 is 11.6 µM [falling, partial curve].

`O=C(Nc1ncc(Cc2ccc(SC(F)F)cc2)s1)c1ccc(OC(F)F)cc1`: the AC50 reads like this: under setting [1], 1.03 µM [rising, full curve, poor fit]; under setting [2], 1.3 µM [falling, full curve].

For `CNC(=O)N(O)C1N(/N=C/c2ccc(SC)cc2)C(=S)SC1(C)C` (centres undefined), the AC50 under setting [1] was 35.5 µM [rising, partial curve, poor fit].

Regarding `COc1ccc(CN(C)C(=O)Cn2cnc3c(NCc4ccccc4)ncnc32)cc1OC`, the AC50 reads like this: under setting [1], 7.31 µM [rising, partial curve]; under setting [2], 11.6 µM [falling, partial curve].

`Cc1ccc(S(=O)(=O)N(Cc2ccc(F)cc2)C(=O)N2CCN(C)CC2)cc1`: under setting [1], the AC50 was 0.411 µM [rising, partial curve, poor fit].

For `Cc1cc(C(=O)NCc2ccco2)c2ccccc2n1`, the AC50 under setting [1] was 14.1 µM [falling, partial curve, poor fit].

For `O=c1c2ccccc2c(C=Nc2cccc(S(=O)(=O)NCc3ccco3)c2)c(O)n1-c1ccc(Cl)cn1`, the AC50 under setting [1] was 3.66 µM [rising, full curve, poor fit].

As to `Cc1cc(=O)[nH]c2n[nH]c(-c3ccccc3)c12`, under setting [1], the concentration at half-maximal activity (AC50) is 35.5 µM [falling, single point].

As to `NC(=O)c1ccsc1NC(=O)COc1ccccc1`, the AC50 under setting [1] was 3.66 µM [falling, partial curve, poor fit].

Take `Cc1c(C(=O)NCCN2CCOCC2)oc2ccc(Br)cc12`: under setting [1], the AC50 was 5.17 µM [rising, partial curve, poor fit].

In the case of `Cc1ccc(CSCC(=O)Nc2ccccc2C(=O)O)cc1`, under setting [1], the AC50 is 22.4 µM [falling, single point].

As to `O=C(NNC(=O)c1ccccc1O)c1ccc(Cl)cc1`, under setting [1], the AC50 was 2.82 µM [falling, partial curve, poor fit].

As to `C/C(=N\NC(=O)C1COc2ccccc2O1)c1ccc(Cl)s1` (centres undefined), the AC50 under setting [1] is 3.16 µM [rising, full curve].

`O=C(c1cc(COc2cccc3cnccc23)on1)N1CCC(c2ccccc2Cl)C1` (centres undefined): under setting [1], the AC50 is 17.8 µM [falling, partial curve, poor fit].

As to `Cc1cccc(C(=O)NC2C(=O)NNC2c2ccc(Cl)cc2)c1` (centres undefined), the AC50 under setting [1] was 14.1 µM [falling, partial curve, poor fit].

For the molecule `CCCN1CCC(=NNC(=O)c2ccc(Br)o2)CC1`, the AC50 under setting [1] is 35.5 µM [falling, single point].
